Test results taken from US20070282017A1 (Harvard, published 2007).

Target: T1, Endogenous JIP3 in cerebellar granule neurons (rat) (UniProt E9PSK7)
T1 sequence (phosphorylated (sites not given), looked up): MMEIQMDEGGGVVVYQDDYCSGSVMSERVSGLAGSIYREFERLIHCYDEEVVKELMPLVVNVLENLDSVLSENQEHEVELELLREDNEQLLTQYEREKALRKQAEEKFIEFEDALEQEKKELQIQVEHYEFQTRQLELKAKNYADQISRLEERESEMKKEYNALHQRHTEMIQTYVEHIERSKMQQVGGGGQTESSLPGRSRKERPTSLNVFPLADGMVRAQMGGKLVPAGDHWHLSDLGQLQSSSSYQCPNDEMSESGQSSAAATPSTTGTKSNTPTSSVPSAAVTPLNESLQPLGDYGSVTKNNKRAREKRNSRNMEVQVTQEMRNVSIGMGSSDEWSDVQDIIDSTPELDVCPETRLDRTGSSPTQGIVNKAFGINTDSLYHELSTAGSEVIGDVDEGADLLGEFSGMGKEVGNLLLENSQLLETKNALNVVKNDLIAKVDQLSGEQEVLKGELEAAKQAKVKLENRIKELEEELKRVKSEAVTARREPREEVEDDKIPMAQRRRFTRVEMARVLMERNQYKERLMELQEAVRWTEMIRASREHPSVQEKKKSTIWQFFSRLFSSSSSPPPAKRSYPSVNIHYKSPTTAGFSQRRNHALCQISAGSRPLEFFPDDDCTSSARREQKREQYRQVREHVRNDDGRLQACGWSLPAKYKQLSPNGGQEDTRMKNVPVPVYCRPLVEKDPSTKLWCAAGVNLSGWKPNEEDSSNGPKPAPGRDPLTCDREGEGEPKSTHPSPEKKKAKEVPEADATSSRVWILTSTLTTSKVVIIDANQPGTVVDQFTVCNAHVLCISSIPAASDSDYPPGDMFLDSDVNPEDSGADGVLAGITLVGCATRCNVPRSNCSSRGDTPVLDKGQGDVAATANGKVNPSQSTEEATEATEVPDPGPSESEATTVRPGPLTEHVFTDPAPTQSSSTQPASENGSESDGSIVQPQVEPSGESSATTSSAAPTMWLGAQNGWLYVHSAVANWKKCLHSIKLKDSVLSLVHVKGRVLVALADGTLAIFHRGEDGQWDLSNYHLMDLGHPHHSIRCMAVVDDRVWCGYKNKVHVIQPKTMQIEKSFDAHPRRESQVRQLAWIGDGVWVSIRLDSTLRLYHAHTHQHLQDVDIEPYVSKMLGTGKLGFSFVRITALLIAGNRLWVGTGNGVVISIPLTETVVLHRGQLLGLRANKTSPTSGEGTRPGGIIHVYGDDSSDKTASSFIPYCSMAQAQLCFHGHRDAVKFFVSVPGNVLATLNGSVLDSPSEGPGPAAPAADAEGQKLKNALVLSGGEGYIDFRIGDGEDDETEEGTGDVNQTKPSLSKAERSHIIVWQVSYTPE
Assay: co-immunoprecipitation with a JIP3 antibody from granule neuron lysates, Pin1 immunoblot; interaction decreased after starvation

binding: binds
Substance: Endogenous Pin1 in cerebellar granule neurons (rat) (enzyme)

No constants are given. Whether binding was seen depends on the method and setting. In cells and extracts the contact can be indirect. Binding calls can cover weak binding; strength is not graded here.
